What all share (experiment): log2 fold change, soluble protein after heating vs DMSO (PISA); higher = thermal stabilisation; K562 cells, 10 uM, 30 min; active = over 0.2 and 3.5 SD of the protein, either way, in both replicates (recomputed)
Compound in one test: C[C@H](Nc1ncnc2nc[nH]c12)c1cc2cccc(Cl)c2c(=O)n1-c1ccccc1 [duvelisib]
A digest of the protocol:
(§1)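 K562 cells at 2×10^6 cells/mL were exposed to 10 μM compound for 30 min, then aliquots were heated for 3 min across 48°C-58°C, pooled, and extracted in PBS containing 0.5% NP-40 at 4°C. The supernatant after 21,000xg for 90 min was taken as soluble protein and measured by TMTpro 16plex LC-MS/MS with channel sums equalised. Thermal stability is reported relative to control samples, with values from duplicates. Fold changes are given on a log2 scale.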

Sequences of proteins named here, by UniProt entry; tags and fusion partners are left off. A change or cut given only in a name is not applied to a line headed by its entry.
UniProt Q86VI4: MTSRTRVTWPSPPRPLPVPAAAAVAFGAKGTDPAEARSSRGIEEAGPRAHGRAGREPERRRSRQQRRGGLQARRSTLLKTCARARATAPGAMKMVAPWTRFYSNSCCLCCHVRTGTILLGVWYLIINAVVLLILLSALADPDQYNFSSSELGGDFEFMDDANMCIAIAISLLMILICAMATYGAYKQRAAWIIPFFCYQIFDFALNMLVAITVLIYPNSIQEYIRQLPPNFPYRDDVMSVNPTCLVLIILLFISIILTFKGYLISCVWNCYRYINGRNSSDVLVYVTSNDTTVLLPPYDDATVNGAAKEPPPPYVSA
UniProt Q08380: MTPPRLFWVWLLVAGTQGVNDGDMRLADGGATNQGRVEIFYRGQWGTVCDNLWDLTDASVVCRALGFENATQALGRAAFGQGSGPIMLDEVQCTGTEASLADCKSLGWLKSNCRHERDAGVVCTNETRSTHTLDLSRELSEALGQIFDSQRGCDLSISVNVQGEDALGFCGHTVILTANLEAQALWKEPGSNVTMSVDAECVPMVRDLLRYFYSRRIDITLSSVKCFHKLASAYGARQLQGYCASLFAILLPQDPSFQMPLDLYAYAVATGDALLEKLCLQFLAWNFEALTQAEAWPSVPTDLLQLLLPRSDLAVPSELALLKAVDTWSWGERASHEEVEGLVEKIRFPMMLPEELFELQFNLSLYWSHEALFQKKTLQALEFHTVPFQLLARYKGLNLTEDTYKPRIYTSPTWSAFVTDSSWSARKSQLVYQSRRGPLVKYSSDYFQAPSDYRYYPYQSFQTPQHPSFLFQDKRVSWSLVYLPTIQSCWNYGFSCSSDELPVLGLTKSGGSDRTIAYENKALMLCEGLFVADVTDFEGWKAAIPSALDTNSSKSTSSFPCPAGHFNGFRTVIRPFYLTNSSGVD
UniProt Q643R3: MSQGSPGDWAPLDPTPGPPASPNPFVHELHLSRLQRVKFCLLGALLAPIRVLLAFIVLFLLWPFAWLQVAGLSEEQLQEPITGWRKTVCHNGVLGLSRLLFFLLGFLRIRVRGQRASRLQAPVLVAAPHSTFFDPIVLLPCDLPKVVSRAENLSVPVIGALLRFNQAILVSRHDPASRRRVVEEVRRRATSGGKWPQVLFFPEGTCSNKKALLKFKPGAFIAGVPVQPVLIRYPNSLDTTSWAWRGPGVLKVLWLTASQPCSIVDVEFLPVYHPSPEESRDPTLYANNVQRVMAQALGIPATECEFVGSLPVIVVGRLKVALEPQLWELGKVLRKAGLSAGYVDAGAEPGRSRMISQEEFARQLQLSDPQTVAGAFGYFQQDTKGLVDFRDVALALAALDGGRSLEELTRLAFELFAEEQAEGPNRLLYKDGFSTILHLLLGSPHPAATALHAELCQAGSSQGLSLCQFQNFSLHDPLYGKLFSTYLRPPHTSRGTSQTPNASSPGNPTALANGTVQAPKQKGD
UniProt Q07954: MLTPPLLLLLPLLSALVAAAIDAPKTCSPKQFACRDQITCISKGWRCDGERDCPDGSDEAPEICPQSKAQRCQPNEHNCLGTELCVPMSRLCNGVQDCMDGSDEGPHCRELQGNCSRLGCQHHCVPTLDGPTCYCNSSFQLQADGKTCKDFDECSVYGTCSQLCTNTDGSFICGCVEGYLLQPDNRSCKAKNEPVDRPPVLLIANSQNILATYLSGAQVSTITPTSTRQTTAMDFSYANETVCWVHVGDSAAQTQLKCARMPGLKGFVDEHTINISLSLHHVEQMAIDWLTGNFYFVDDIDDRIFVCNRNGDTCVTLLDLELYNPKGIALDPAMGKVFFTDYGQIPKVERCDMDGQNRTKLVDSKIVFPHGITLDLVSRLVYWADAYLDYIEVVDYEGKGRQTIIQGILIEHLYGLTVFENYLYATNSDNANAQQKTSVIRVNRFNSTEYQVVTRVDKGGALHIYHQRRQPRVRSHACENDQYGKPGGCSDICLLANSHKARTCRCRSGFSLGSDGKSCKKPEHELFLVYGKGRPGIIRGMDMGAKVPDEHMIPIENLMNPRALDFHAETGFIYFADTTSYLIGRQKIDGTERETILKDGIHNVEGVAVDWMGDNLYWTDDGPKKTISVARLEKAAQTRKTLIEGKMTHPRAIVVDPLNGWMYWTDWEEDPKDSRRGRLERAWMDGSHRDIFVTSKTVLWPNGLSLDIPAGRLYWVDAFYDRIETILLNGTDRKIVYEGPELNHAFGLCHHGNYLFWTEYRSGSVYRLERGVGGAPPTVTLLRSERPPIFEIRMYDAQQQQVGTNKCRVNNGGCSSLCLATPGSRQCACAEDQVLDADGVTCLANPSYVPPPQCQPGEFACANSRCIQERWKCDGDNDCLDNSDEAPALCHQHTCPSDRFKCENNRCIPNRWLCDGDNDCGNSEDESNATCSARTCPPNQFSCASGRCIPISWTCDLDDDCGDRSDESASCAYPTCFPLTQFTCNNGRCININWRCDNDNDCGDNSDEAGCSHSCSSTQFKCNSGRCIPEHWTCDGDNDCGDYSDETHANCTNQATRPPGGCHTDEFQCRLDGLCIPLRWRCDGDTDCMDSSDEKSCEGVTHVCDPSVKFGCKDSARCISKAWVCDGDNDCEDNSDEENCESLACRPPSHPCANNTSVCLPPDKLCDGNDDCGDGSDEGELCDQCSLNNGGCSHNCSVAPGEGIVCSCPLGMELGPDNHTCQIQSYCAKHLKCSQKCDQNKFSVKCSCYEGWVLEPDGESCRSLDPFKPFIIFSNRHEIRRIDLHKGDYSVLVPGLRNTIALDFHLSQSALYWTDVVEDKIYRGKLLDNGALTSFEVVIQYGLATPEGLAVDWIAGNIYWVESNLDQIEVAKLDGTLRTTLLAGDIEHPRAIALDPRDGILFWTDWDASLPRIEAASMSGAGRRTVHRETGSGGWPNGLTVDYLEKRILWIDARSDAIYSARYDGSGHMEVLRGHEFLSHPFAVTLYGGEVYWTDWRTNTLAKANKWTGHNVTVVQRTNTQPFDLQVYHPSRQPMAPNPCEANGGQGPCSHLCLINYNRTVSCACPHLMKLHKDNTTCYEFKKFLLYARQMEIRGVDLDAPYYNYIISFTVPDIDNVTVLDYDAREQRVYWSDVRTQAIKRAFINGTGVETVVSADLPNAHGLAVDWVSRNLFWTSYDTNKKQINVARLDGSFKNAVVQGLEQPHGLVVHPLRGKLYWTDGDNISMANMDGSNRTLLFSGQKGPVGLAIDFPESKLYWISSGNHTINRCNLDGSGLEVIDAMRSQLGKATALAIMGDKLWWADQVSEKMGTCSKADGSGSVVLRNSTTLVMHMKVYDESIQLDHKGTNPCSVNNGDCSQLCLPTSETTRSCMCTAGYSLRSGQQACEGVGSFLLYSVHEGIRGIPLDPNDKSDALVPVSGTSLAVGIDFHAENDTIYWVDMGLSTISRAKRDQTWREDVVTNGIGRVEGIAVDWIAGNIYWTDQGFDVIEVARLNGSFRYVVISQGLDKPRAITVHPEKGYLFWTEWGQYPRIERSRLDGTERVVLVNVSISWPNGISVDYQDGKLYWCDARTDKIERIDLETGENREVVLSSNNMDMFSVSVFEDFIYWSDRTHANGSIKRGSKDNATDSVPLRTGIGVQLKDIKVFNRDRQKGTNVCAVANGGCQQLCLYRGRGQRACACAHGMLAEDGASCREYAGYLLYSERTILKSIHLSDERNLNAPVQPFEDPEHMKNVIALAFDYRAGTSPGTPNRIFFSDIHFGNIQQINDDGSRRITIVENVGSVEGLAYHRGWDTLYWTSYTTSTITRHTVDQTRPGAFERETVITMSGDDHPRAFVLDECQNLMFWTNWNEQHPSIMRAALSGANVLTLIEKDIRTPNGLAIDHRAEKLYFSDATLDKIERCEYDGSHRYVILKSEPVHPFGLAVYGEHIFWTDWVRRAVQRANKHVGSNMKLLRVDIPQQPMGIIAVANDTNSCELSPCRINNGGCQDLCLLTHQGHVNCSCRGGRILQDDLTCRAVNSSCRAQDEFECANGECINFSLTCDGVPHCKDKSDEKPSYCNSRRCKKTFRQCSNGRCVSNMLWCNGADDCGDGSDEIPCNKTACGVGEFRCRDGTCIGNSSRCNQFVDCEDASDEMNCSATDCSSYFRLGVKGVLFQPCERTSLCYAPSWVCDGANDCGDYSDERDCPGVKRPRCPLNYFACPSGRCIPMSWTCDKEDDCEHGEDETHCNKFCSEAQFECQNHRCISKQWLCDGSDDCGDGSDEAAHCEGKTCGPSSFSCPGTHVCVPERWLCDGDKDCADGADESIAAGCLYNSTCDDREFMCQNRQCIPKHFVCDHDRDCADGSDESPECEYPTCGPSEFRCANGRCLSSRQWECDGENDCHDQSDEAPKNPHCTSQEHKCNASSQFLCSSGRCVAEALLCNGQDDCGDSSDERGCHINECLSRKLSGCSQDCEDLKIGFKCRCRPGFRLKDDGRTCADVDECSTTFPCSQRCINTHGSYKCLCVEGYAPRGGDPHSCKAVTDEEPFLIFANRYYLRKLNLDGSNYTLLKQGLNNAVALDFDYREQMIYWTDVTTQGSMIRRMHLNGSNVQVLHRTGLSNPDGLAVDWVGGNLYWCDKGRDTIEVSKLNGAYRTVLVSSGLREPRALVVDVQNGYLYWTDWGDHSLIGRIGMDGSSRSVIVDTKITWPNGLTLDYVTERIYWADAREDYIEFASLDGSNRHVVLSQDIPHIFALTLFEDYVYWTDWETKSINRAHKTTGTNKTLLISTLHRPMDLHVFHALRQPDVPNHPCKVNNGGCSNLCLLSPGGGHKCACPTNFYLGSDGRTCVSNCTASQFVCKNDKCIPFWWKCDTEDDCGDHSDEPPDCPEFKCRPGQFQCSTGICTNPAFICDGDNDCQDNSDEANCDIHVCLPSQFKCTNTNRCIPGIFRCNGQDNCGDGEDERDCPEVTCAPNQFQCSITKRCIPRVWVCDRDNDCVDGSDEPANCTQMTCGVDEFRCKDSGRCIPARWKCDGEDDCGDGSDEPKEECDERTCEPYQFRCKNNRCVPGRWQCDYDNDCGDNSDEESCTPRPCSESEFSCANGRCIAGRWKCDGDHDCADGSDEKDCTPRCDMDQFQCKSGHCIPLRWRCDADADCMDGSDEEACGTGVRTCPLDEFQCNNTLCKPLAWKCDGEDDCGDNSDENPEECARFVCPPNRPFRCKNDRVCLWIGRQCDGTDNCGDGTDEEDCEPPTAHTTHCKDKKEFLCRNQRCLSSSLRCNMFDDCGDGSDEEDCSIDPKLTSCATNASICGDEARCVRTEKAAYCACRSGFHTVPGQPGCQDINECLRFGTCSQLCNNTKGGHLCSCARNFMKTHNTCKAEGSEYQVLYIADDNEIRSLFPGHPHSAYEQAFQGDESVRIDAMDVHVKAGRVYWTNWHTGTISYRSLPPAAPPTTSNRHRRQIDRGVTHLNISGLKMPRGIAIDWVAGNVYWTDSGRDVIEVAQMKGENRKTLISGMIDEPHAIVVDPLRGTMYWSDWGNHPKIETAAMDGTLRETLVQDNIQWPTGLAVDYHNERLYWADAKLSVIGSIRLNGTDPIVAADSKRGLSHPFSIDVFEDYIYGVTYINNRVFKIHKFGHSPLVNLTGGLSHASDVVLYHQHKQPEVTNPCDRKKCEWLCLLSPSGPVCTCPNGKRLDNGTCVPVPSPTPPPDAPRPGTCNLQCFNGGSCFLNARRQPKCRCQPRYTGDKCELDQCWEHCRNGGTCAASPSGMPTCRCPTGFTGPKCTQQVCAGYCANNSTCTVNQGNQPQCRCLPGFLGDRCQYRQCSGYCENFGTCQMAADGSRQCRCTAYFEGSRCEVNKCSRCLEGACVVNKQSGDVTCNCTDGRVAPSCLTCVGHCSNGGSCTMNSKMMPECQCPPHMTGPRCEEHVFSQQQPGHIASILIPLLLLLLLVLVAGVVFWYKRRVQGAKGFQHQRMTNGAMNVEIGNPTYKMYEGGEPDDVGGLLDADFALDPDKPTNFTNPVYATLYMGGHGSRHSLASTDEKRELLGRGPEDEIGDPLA
UniProt P48059, whole entry, looked up: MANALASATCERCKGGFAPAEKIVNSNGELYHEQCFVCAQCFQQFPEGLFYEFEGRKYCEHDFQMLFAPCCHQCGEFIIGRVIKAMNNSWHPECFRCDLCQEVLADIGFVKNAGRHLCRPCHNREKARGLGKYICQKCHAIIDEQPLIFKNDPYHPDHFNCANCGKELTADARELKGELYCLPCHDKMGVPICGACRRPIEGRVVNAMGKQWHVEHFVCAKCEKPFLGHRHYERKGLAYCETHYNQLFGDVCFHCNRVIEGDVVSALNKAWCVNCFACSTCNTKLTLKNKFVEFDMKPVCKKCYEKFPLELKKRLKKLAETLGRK
UniProt O95214: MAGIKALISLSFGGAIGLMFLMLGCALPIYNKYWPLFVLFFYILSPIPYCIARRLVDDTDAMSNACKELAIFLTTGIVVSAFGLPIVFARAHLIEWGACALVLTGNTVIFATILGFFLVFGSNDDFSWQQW
UniProt P61968: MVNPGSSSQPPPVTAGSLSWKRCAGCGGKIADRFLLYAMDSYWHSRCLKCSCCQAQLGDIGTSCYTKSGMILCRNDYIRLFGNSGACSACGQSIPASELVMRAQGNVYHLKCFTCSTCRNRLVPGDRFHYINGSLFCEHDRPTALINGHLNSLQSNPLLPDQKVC

Compound in the next test: Cc1cc(Nc2cc(N3CCN(C)CC3)nc(Sc3ccc(NC(=O)C4CC4)cc3)n2)n[nH]1 [tozasertib]
A digest of the protocol: as §1

Compound in test [1]: Cc1cc(SCc2sc(-c3ccc(C(F)(F)F)cc3)nc2C)ccc1OCC(=O)O
Put shortly:
as §1

Compound in a further test: Cc1ccc(C(=O)N(CCCN)[C@@H](c2nc3cc(Cl)ccc3c(=O)n2Cc2ccccc2)C(C)C)cc1 [ispinesib]
Put shortly: as §1

Compound in test [2]: CS(=O)(=O)c1ccc(-c2cnc(N)c(C(=O)Nc3ccccc3)n2)cc1
A digest of the protocol: as §1

Compound in test [3]: C[C@H](C1=CC=C(C=C1)C(=O)NC2=C3C=CNC3=NC=C2)N
A digest of the protocol:
as §1

Compound in the next test: Cc1cc(Nc2cc(CN3CCOCC3)c3nc(C)c(Cc4ccc(Cl)cc4F)n3n2)n[nH]1 [gandotinib]
A digest of the protocol:
as §1

Compound in test [4]: C[C@@H]1COCCN1C2=NC(=NC(=C2)C3(CC3)S(=O)(=O)C)C4=C5C=CNC5=CC=C4
Put shortly: as §1

Compound in the next test: C[C@@H](Oc1cc(-c2cnn(C3CCNCC3)c2)cnc1N)c1c(Cl)ccc(F)c1Cl [crizotinib]
Put shortly: as §1

Compound in a further test: Cc1ccc(-n2nc(C(C)(C)C)cc2NC(=O)Nc2ccc(OCCN3CCOCC3)c3ccccc23)cc1 [doramapimod]
A digest of the protocol: as §1

These results are taken from the supplement of paper PMC10849652.

The list shows a part of the results.

As to LAMB2 (UniProt P55268), the log2 fold change in the test with duvelisib was inactive: -0.069; in the test with tozasertib, inactive: -0.132; in [1] it was inactive: 0.077; with ispinesib it was inactive: -0.275.

For the target LIMD2 (UniProt Q9BT23), the log2 fold change in test [2] is inactive: 0.059; in [3] it was inactive: -0.117; with tozasertib, inactive: -0.071.

Consider LBHD1 (UniProt Q9BQE6), for which the log2 fold change in test [3] is inactive: 0.058.

On to LAMA2 (UniProt P24043), for which, in test [3], the log2 fold change is inactive: 0.49.

As to LGMN (UniProt Q99538), the log2 fold change in the test with gandotinib was inactive: 0.24.

With LEPROT (UniProt O15243), the log2 fold change in [4] was inactive: -0.149; in test [3] it was inactive: 0.083; with gandotinib it was inactive: 0.081; in test [1] it was inactive: -0.026.

Turning to LIN28A (UniProt Q9H9Z2), the log2 fold change in test [2] was inactive: 0.014; in [3] it was inactive: -0.324; with duvelisib, inactive: 0.117; with gandotinib it was inactive: -0.026; in [1], inactive: -0.049.

With KXD1 (UniProt Q9BQD3), the log2 fold change was inactive: 0.118 in test [4]; inactive: -0.009 in test [3]; inactive: -0.156 in the test with gandotinib; inactive: 0.012 in test [1]; inactive: -0.078 in the test with ispinesib.

Consider LAPTM5 (UniProt Q13571), for which the log2 fold change was inactive: 0.043 in [3]; inactive: 0.173 with duvelisib; inactive: -0.066 with gandotinib; inactive: 0.113 in the test with tozasertib; inactive: -0.354 in test [1]; inactive: -0.164 with ispinesib.

In the case of LATS1 (UniProt O95835), in the test with gandotinib, the log2 fold change was inactive: 0.072.

Regarding LIG4 (UniProt P49917), the log2 fold change was inactive: 0.095 in test [2], inactive: 0.098 in the test with duvelisib, inactive: 0.082 in the test with gandotinib and inactive: 0.335 in [1].

Take LAPTM4B (UniProt Q86VI4): the log2 fold change in [2] is inactive: 0.012; with gandotinib it was inactive: 0.

For the target LRP5 (UniProt O75197), the log2 fold change was inactive: -0.014 in test [4]; inactive: -0.028 in [3]; inactive: -0.054 in the test with duvelisib; inactive: -0.07 with gandotinib; inactive: 0.241 in the test with tozasertib; inactive: 0.014 in [1].

Turning to LRMP (UniProt Q12912), the log2 fold change in the test with ispinesib was inactive: -0.137.

Consider LARP1B, A0A3B3ISF0, for which the results for the log2 fold change (in [2]; in the test with gandotinib; in the test with ispinesib) were inactive: 0.095, inactive: 0.084 and inactive: -0.161, respectively.

As to LAMC1 (UniProt P11047), the log2 fold change with duvelisib is inactive: -0.135; with gandotinib, inactive: 0.071; in test [1], inactive: 0.526.

Take LGALS3BP (UniProt Q08380): the log2 fold change in test [4] is inactive: 0.028.

Regarding LRRC14 (UniProt Q15048), the log2 fold change with crizotinib is inactive: -0.026; with duvelisib, inactive: 0.041; in the test with tozasertib, inactive: -0.045; in test [1], inactive: 0.019; in the test with doramapimod, inactive: -0.017.

For LBH (UniProt Q53QV2), the log2 fold change in [4] is inactive: 0.161; in the test with ispinesib it was inactive: 0.09.

For the target LIN52 (UniProt Q52LA3), the log2 fold change in [1] was inactive: -0.059.

For LOR (UniProt P23490), in [4], the log2 fold change is inactive: -0.415.

On to L1TD1 (UniProt Q5T7N2), for which the log2 fold change in the test with crizotinib is inactive: -0.121; in test [3], inactive: 0.217; with duvelisib, inactive: 0.183; in the test with gandotinib it was inactive: -0.199; in the test with tozasertib, inactive: -0.18; in test [1], inactive: -0.209. In the test with doramapimod, the log2 fold change is inactive: 0.149.

As for LPCAT4 (UniProt Q643R3), the log2 fold change was inactive: -0.092 with crizotinib, inactive: -0.147 in [4], inactive: 0.286 in test [3] and inactive: -0.13 with doramapimod.

Turning to LAMA5 (UniProt O15230), the log2 fold change in test [4] is inactive: -0.239; in test [3] it was inactive: -0.043; in the test with duvelisib, inactive: 0.045; in the test with gandotinib, inactive: 0.197; with tozasertib it was inactive: -0.19; in [1], inactive: 0.045.

As for LAMP2 isoform 2 (UniProt P13473), the log2 fold change is active: -0.424 with crizotinib; inactive: 0.119 in test [4]; inactive: -0.051 in [3]; active: 0.344 with duvelisib; inactive: 0.066 with gandotinib; inactive: 0.011 in test [1]. The log2 fold change in the test with doramapimod was inactive: 0.002.

On to LRP1 (UniProt Q07954), for which the log2 fold change in test [4] was inactive: 0.205; with duvelisib it was inactive: -0.054; with gandotinib, inactive: -0.066; with tozasertib it was inactive: -0.027; in [1], inactive: 0.014.

Regarding LGALS3 (UniProt P17931), the log2 fold change with duvelisib is inactive: 0.067; with gandotinib, inactive: -0.037; in test [1], inactive: -0.07; with ispinesib it was inactive: -0.193.

As to LDLRAP1 (UniProt Q5SW96), the log2 fold change was inactive: 0.004 in the test with crizotinib, inactive: 0.18 with doramapimod and inactive: -0.088 with ispinesib.

In the case of LIMS1 (UniProt P48059), the log2 fold change with crizotinib is inactive: 0.003; in the test with doramapimod it was inactive: 0.084.

LIMS1 isoform 5 (UniProt P48059): the log2 fold change in test [3] is inactive: 0.089.

In the case of LMLN isoform 3 (UniProt Q96KR4), the log2 fold change was inactive: -0.033 in test [4], inactive: -0.056 in the test with duvelisib and inactive: 0.24 in test [1].

With LLGL2 (UniProt Q6P1M3), the log2 fold change with crizotinib is inactive: 0; in [4], inactive: -0.067; in test [3], inactive: 0.309; with gandotinib it was inactive: -0.387; in the test with doramapimod, inactive: 0.241; with ispinesib, inactive: -0.123.

Turning to LCN2 isoform 2 (UniProt P80188), the log2 fold change in test [2] is inactive: -0.178; in the test with tozasertib it was inactive: 0.111.

In the case of LEPROTL1 isoform 2 (UniProt O95214), the log2 fold change with crizotinib is inactive: -0.165; in test [3], inactive: -0.046; in the test with duvelisib, inactive: -0.071; in the test with tozasertib, inactive: 0.066; in test [1] it was inactive: -0.092; in the test with doramapimod, inactive: 0.141. Moreover, the log2 fold change in the test with ispinesib is inactive: -0.492.

For LRRC42 (UniProt Q9Y546), the log2 fold change is inactive: 0.206 in [3]; inactive: 0.351 with duvelisib; inactive: -0.15 in the test with gandotinib; inactive: -0.052 in the test with tozasertib; inactive: -0.056 in test [1]; inactive: -0.043 with ispinesib.

LMO4 (UniProt P61968): the log2 fold change with crizotinib was inactive: 0.003; in test [3] it was inactive: -0.022; with duvelisib, inactive: 0.038; in the test with gandotinib, inactive: 0.062; with tozasertib it was inactive: -0.046; in test [1], inactive: -0.092. The log2 fold change is inactive: 0.008 with doramapimod and inactive: 0.172 in the test with ispinesib.

LIG3 (UniProt P49916): the log2 fold change in [2] was inactive: -0.01; in test [3] it was inactive: 0.326; with duvelisib, inactive: -0.178; with gandotinib it was inactive: 0.144; in test [1], inactive: 0.014.

Take LGALSL (UniProt Q3ZCW2): the log2 fold change with crizotinib was inactive: -0.139; in the test with duvelisib, inactive: -0.289; in test [1] it was inactive: -0.155; in the test with doramapimod, inactive: 0.163.

On to LDHD (UniProt Q86WU2), for which, in [3], the log2 fold change is inactive: 0.338.
